This test can be described thus: IkB Signaling. Particulars: ABC-DLBCL IkBa-CBG/CBR dual luciferase ratio (green luciferase fused to IkBa over red control in OCI-Ly3 lymphoma cells), 4 h. In a few lines:
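Luminescence ratio of IκBα-fused green versus native red beetle luciferase in OCI-Ly3 cells, 4 h post-doxycycline with compound; red signal alone, scaled from basal (0%) to zero light (-100%), flagged nonspecific or cytotoxic effects.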

Setting [1] is: measured here: control luc red channel unless noted.

Each structure is given as a SMILES string. The list shows a part of the results. Shown are side measurements of this screen, not its main read-out; they come without a call. Compounds called inactive in the main read-out are mostly missing here. The note in brackets gives the kind of curve behind each potency; many fits are weak.

On to `CCc1nnc(NC(=O)CCC(=O)N2CCN(Cc3ccccc3)CC2)s1`, for which the AC50 under setting [1] is 6.31 µM [falling, partial curve].
Still for that read-out and setting: the result for `Cc1ccc(NC(=O)CCn2cccn2)cc1Cl` reads 3.98 µM [rising, partial curve]; that for `O=C1CC(SCc2nc3ccccc3[nH]2)C(=O)N1c1cccc(F)c1` (stereo not drawn), 10 µM [falling, partial curve].
For `COc1ccc(NC(=O)Cn2c(=O)n(-c3ccccc3)c(=O)c3c4c(sc32)CCCC4)cc1`, the AC50 (measured here: IkB-luc green channel) is 39.8 µM [rising, single point] and the AC50 (measured here: control luc red channel) was 0.126 µM [rising, full curve].
On to `O=C(CN(c1ccc2c(c1)OCCO2)S(=O)(=O)c1ccccc1)Nc1ccc2c(c1)OCO2`, for which, under setting [1], the concentration at half-maximal activity (AC50) is 10 µM [falling, partial curve].
Consider `C=CCn1c(SCC(=O)Nc2ccc3c(c2)CCC3)nnc1-c1cccs1`, for which the half-maximal activity concentration (AC50) under setting [1] was 20 µM [falling, partial curve].
On the same count and under the same terms, under `Cc1cc(C)cc(Nc2cc(-c3ccccc3)nc(C)n2)c1` stands 15.8 µM [falling, partial curve]; under `CCCCN(C)c1nnc(NC(=O)Nc2cccc(C(C)=O)c2)s1`, 20 µM [falling, partial curve].
Same read-out and setting: the result for `COC(=O)c1c(NC(=O)c2cc3nc(-c4ccc(OC)cc4)cc(C(F)(F)F)n3n2)sc2c1CCCC2` reads 6.31 µM [rising, partial curve]; that for `COc1ccc(-c2cc(NCc3ccc(F)cc3)n3cnnc3n2)cc1`, 31.6 µM [falling, single point].
On to `Cc1cc(OCC(=O)NCC2(N3CCN(C)CC3)CCCCC2)cc(C)c1Cl`, for which the concentration at half-maximal activity (AC50) under setting [1] was 15.8 µM [falling, single point].
The same measure, in the same setting: the result for `Cc1nn(CC(=O)NCCc2ccc(Cl)cc2)c(=O)c2cc3cc(F)ccc3n12` reads 20 µM [falling, single point]; that for `Cc1ccc(-n2nc3c(N4CCC(C(=O)N5CCCCC5)CC4)nnc(C)c3c2C)cc1`, 10 µM [falling, partial curve]; that for `CCCc1cc(N2CCN(c3cc(Cl)ccc3C)CC2)n2cnnc2n1`, 15.8 µM [falling, partial curve].
On the same count and under the same terms, under `c1ccc(-n2ncc3c(NCc4cccnc4)ncnc32)cc1` stands 15.8 µM [falling, partial curve].
Turning to `Cc1sc2c(c1C)c(=O)n(CCc1ccccc1)c(=O)n2Cc1cccc(F)c1`, the AC50 under setting [1] was 25.1 µM [falling, partial curve, poor fit].
Consider `O=C(C1CCC1)N1CCc2cc(S(=O)(=O)NCCN3CCN(c4ccccc4F)CC3)ccc21`, for which, under setting [1], the AC50 is 15.8 µM [falling, partial curve].
The same measure, in the same setting: under `CCn1c(=O)cc(SCC(=O)Nc2ccc3c(c2)OCCO3)c2ccccc21` stands 15.8 µM [falling, partial curve].
Still for that read-out and setting: the result for `Cc1ccc(-n2c(=O)c3c(c4cc(C)ccc4n3C)n(CC(=O)NCc3ccccc3Cl)c2=O)cc1` reads 25.1 µM [falling, single point]; that for `CCc1nnc2n1N=C(c1ccc(-c3cc(Cl)ccc3Cl)o1)CS2`, 6.31 µM [falling, partial curve]; that for `COc1ccc(CCC(=O)NC2CC(=O)N(c3ccc(C)cc3)C2)cc1` (stereo not drawn), 3.98 µM [falling, partial curve].
The same measure, in the same setting: the result for `CCCCNC(=O)C(CC)Sc1nnc(-c2cccc(F)c2)c(-c2cccc(F)c2)n1` (stereo not drawn) reads 25.1 µM [falling, single point]; that for `CCCCOC(=O)c1ccc(Nc2ncnc3[nH]ncc23)cc1`, 3.98 µM [rising, partial curve]; that for `CC(=O)Nc1c(C)nn(-c2ccccc2)c1N1CCC(C(=O)NCc2ccc(Cl)cc2)CC1`, 20 µM [falling, single point].
Consider `Cc1cc(C)cc(N2CC(c3nc(-c4ccccc4C)no3)CC2=O)c1` (stereo not drawn), for which the AC50 under setting [1] is 25.1 µM [falling, single point].
Same read-out and setting: the result for `CCOC(=O)c1ccc(NC(=O)CN(c2ccc(C)cc2)S(=O)(=O)c2c(C)noc2C)cc1` reads 20 µM [falling, single point]; that for `Cc1nc2c(C(=O)NCCc3ccc(Cl)cc3)cnn2c(C)c1Cc1c(F)cccc1Cl`, 31.6 µM [falling, partial curve]; that for `COc1ccc(-c2cc3nc(C)c(CCC(=O)N4CCN(c5cccc(Cl)c5)CC4)c(C)n3n2)c(OC)c1`, 2 µM [falling, full curve].
Still for that read-out and setting: under `O=C(NCc1cccs1)c1ccc2c(c1)N(Cc1ccccc1Cl)C(=O)c1ccccc1S2` stands 5.01 µM [falling, full curve]; under `Cc1ccccc1-c1ncnn1-c1sc2c(c1C#N)CCCCC2`, 0.0794 µM [falling, full curve].
Same read-out and setting: under `COc1ccc(CNC(=O)c2cc3cc(C)ccc3n2C)cc1` stands 10 µM [falling, single point]; under `Cn1c(=O)c2c(nc(SCC(=O)Nc3ccc(OC(F)(F)F)cc3)n2Cc2cccc(C(F)(F)F)c2)n(C)c1=O`, 12.6 µM [falling, partial curve]; under `COc1ccc(N2CCN(c3nc4ccccc4n3CC(=O)c3ccccc3)CC2)cc1`, 39.8 µM [falling, single point].
In the case of `CCOC(=O)c1sc2ccccc2c1S(=O)(=O)Nc1c(C)cccc1C`, the half-maximal activity concentration (AC50) under setting [1] was 0.794 µM [falling, full curve, poor fit].
On the same count and under the same terms, the result for `COc1ccccc1OCc1csc(NC(=O)c2ccco2)n1` reads 12.6 µM [falling, partial curve].
The same measure, in the same setting: the result for `Cc1cc(NC(=O)N2CC=C(c3c[nH]c4ccccc34)CC2)ccc1Br` reads 7.94 µM [falling, partial curve].
The same measure, in the same setting: the result for `O=C(Cn1c(=O)n(-c2ccc(F)cc2)c(=O)c2sc3ccccc3c21)N1CCCC1` reads 25.1 µM [falling, single point]; that for `Cc1ccc(CSC2=Nc3ccccc3C3=NC(CCC(=O)N4CCN(c5ccccc5)CC4)C(=O)N23)cc1` (stereo not drawn), 39.8 µM [falling, single point]; that for `COc1cc(CNC(=O)c2cc(-c3ccccc3)n[nH]2)cc(OC)c1OC`, 39.8 µM [falling, single point].
Turning to `COc1ccc(-n2nc(C(=O)N3CCC(C)CC3)c3c4ccccc4n(C)c3c2=O)cc1Cl`, the concentration at half-maximal activity (AC50) under setting [1] is 20 µM [falling, partial curve].
On to `COc1cccc(CNC(=O)Cn2cc3c(n2)-c2c(oc(C(=O)N4CCCC4)c2C)CC3)c1OC`, for which the AC50 under setting [1] was 25.1 µM [falling, single point].
On the same count and under the same terms, under `O=C(NCc1ccc2c(c1)CCN2C(=O)c1ccc(F)cc1)c1ccc(Br)o1` stands 12.6 µM [falling, partial curve]; under `Cc1cc(C)c(NC(=O)Cn2nc3c(cc2=O)CCCC3)c(C)c1`, 25.1 µM [rising, single point] [measured here: IkB-luc green channel]; under `CCOc1ccc(NC(=O)N(CCN2CCOCC2)Cc2ccc3c(c2)CCCN3CC)cc1`, 20 µM [falling, partial curve, poor fit].
Same read-out and setting: the result for `CCCS(=O)(=O)c1ncc(Cl)c(C(=O)N(Cc2ccccc2)Cc2ccco2)n1` reads 5.01 µM [falling, partial curve].
As to `CCOc1ccc(-c2oc3ccccc3c(=O)c2O)cc1OCC`, the AC50 under setting [1] was 2 µM [rising, partial curve].
On the same count and under the same terms, the result for `CCOC(=O)c1c(NC(=O)c2nn(CC)cc2Br)c(C#N)cn1-c1ccccc1` reads 15.8 µM [falling, partial curve]; that for `COc1ccccc1NC(=O)N1CC(=O)Nc2sc3c(c2C1c1ccccc1)CCCC3` (stereo not drawn), 15.8 µM [falling, partial curve].
In the case of `COc1ccccc1NC(=O)C1=C(C)Nc2c(C(=O)Nc3ccc(F)cc3)cnn2C1c1ccc(Cl)cc1` (stereo not drawn), the half-maximal activity concentration (AC50) under setting [1] is 7.94 µM [falling, partial curve].
Regarding `COc1ccc2c(Sc3ccccc3)c(C(=O)NCc3cccc(OC)c3OC)[nH]c2c1`, the AC50 under setting [1] is 10 µM [falling, partial curve].
The same measure, in the same setting: under `CCOc1ccc(CCNC(=O)CCCc2nnc3n(CC(C)C)c(=O)c4sccc4n23)cc1` stands 15.8 µM [falling, partial curve]; under `CCOC(=O)c1cc(S(=O)(=O)Nc2ccc(OC)c(Cl)c2)[nH]n1`, 20 µM [falling, partial curve].
On to `CCc1nc2sc3ccccc3c(=O)c2c(=O)n1Cc1ccco1`, for which the AC50 under setting [1] is 2.51 µM [falling, full curve].
Same read-out and setting: the result for `Cc1ccc(C(c2nnnn2CCc2ccccc2)N2CCSCC2)cc1` (stereo not drawn) reads 25.1 µM [falling, partial curve].
Still for that read-out and setting: the result for `COc1ccccc1Oc1nc2c(c(=O)n(C)c(=O)n2C)n1Cc1cccc(Br)c1` reads 10 µM [falling, partial curve]; that for `CC(=O)Nc1ccc(S(=O)(=O)Nc2cccc(-c3ccc(N4CCC(C)CC4)nn3)c2)cc1`, 3.98 µM [falling, partial curve].
Turning to `CCCc1noc(-c2ccc(N3CCCCC3)c([N+](=O)[O-])c2)n1`, under setting [1], the AC50 is 0.00631 µM [rising, full curve, poor fit].
Still for that read-out and setting: the result for `Cc1nc2c(cnn2-c2ccccc2Cl)c(=O)n1-c1ccc(C(C)C)cc1` reads 20 µM [falling, single point].
On to `CCc1ccc(S(=O)(=O)c2nnn3c2nc(NCCc2ccccc2)c2sccc23)cc1`, for which, under setting [1], the AC50 was 7.94 µM [falling, full curve].
The same measure, in the same setting: the result for `COc1cccc(-c2nc(SCC(=O)Nc3ccc4c(c3)OCO4)c(-c3ccccc3)[nH]2)c1` reads 6.31 µM [falling, partial curve]; that for `CN(C)S(=O)(=O)N(CC(=O)NCCSCc1ccccc1Cl)c1ccccc1`, 15.8 µM [falling, partial curve]; that for `CCCCC(=O)c1c(O)c2ccccc2oc1=O`, 3.16 µM [falling, full curve].

As usually defined, the AC50 is the concentration giving half of the maximal activity seen.

Values taken from PubChem BioAssay AID445 (National Center for Advancing Translational Sciences (NCATS), 2006).
